Some of the results follow.
Key:
Assay in all cases: glycan array binding signal (z-score within array); higher = stronger binding
Conditions in all cases: glycan notation: IUPAC condensed, linker removed
Gal(a1-3)Gal(b1-4)GlcNAc = molecular target: Gal(a1-3)Gal(b1-4)GlcNAc
Method in brief: (§1)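 Glycan array binding is given as a within-array Z-score, which can be read as non-binding when negative. The arrays, 3228 of them, came from the Consortium for Functional Glycomics database and were retained only where the protein sequence was available. Z-scores were averaged across arrays of the same protein sequence at different concentrations or buffers and across linkers.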

[1] = molecular target: Gal(a1-3)Gal(b1-4)GlcNAc(b1-2)Man
Method in brief: as §1

[2] = molecular target: Gal(a1-3)Gal(b1-4)GlcNAc(b1-2)Man(a1-3)[Gal(a1-3)Gal(b1-4)GlcNAc(b1-2)Man(a1-6)]Man(b1-4)GlcNAc(b1-4)GlcNAc
Method in brief: as §1

[3] = molecular target: Gal(a1-3)Gal(b1-4)GlcNAc(b1-3)GalNAc
Method in brief: as §1

[4] = molecular target: Gal(a1-3)Gal(b1-4)GlcNAc(b1-6)GalNAc
Method in brief: as §1

[5] = molecular target: Gal(a1-3)Gal(b1-4)[Fuc(a1-3)]GlcNAc
Method in brief: as §1

[6] = molecular target: Gal(a1-3)Gal(b1-4)[Fuc(a1-3)]GlcNAc(b1-2)Man(a1-3)[Gal(a1-3)Gal(b1-4)[Fuc(a1-3)]GlcNAc(b1-2)Man(a1-6)]Man(b1-4)GlcNAc(b1-4)GlcNAc
Method in brief: as §1

Gal(a1-3)GalNAc = molecular target: Gal(a1-3)GalNAc
Method in brief: as §1

[7] = molecular target: Gal(a1-3)[Gal(a1-4)]Gal(b1-4)GlcNAc
Method in brief: as §1

[8] = molecular target: Gal(a1-4)Gal(b1-3)GlcNAc(b1-2)Man(a1-3)[Gal(a1-4)Gal(b1-3)GlcNAc(b1-2)Man(a1-6)]Man(b1-4)GlcNAc(b1-4)GlcNAc
Method in brief: as §1

Gal(a1-4)Gal(b1-4)Glc = molecular target: Gal(a1-4)Gal(b1-4)Glc
Method in brief: as §1

Gal(a1-4)Gal(b1-4)GlcNAc = molecular target: Gal(a1-4)Gal(b1-4)GlcNAc
Method in brief: as §1

[9] = molecular target: Gal(a1-4)Gal(b1-4)GlcNAc(b1-2)Man(a1-3)[Gal(a1-4)Gal(b1-4)GlcNAc(b1-2)Man(a1-6)]Man(b1-4)GlcNAc(b1-4)GlcNAc
Method in brief: as §1

[10] = molecular target: Gal(a1-4)Gal(b1-4)GlcNAc(b1-3)Gal(b1-4)Glc
Method in brief: as §1

Gal(a1-4)GlcNAc = molecular target: Gal(a1-4)GlcNAc
Method in brief: as §1

Gal(a1-6)Glc = molecular target: Gal(a1-6)Glc
Method in brief: as §1

Gal(b1-2)Gal = molecular target: Gal(b1-2)Gal
Method in brief: as §1

Gal(b1-3)Gal = molecular target: Gal(b1-3)Gal
Method in brief: as §1

Gal(b1-3)Gal(b1-4)GlcNAc = molecular target: Gal(b1-3)Gal(b1-4)GlcNAc
Method in brief: as §1

Gal(b1-3)GalNAc = molecular target: Gal(b1-3)GalNAc
Method in brief: as §1

[11] = molecular target: Gal(b1-3)GalNAc(a1-3)[Fuc(a1-2)]Gal(b1-4)Glc
Method in brief: as §1

[12] = molecular target: Gal(b1-3)GalNAc(a1-3)[Fuc(a1-2)]Gal(b1-4)GlcNAc
Method in brief: as §1

Gal(b1-3)GalNAc(b1-3)Gal = molecular target: Gal(b1-3)GalNAc(b1-3)Gal
Method in brief: as §1

[13] = molecular target: Gal(b1-3)GalNAc(b1-3)Gal(a1-4)Gal(b1-4)Glc
Method in brief: as §1

[14] = molecular target: Gal(b1-3)GalNAc(b1-4)Gal(b1-4)Glc
Method in brief: as §1

[15] = molecular target: Gal(b1-3)GalNAc(b1-4)[Neu5Ac(a2-3)]Gal(b1-4)Glc
Method in brief: as §1

Gal(b1-3)GlcNAc = molecular target: Gal(b1-3)GlcNAc
Method in brief: as §1

[16] = molecular target: Gal(b1-3)GlcNAc(a1-3)Gal(b1-4)GlcNAc
Method in brief: as §1

[17] = molecular target: Gal(b1-3)GlcNAc(a1-6)Gal(b1-4)GlcNAc
Method in brief: as §1

Gal(b1-3)GlcNAc(b1-2)Man = molecular target: Gal(b1-3)GlcNAc(b1-2)Man
Method in brief: as §1

B1: CcfD (Bacteroides fragilis), Q5L9G4 (protein)
chain: MKKQNSIYTLLIALLCFVSSCDYLGVSDQLAGGLQNTEQVFDNVSYTKRWYANVFAGIPDYSGINSVNVGAFKNPWTGMCDELVVGYGNSSKYNNSDRNAANMGFHRYGDCYKYIRQANIFLQKAHPIMTTGTQGDQLLEDELTQMKANVRFMRAFYHYLLFEQYGPIILVKDKIYNATEDQDVPRNTVDEVIEYIDSELTAVASELTQEPIFEDKDYRAWPTKGVALAVRAKLWLYAASPLLNGGYREALSVTNPDGTRLFPDYDAGKWEKALAACKDFIDYAEAGRYELYKEYKDDNGAVIDPDKSVYNLFQKYTHEIIWATANNDWGGMNGDAFDRRIAPRCEKNGLGSTGVTQELVDAFYMKDGFPVSATAYLPQSTLYQEEGYGTYKDQNDNFSKKYTNVTVSNRYLNREPRFYNTVFFNGRQWPVSCNQVLFYNGGNSGVQEGQATLTGYMLFKRFNRSVSLTNPGVASQFRPSIIFRLADFYLMYAEAANEVNPNDARVLKYLNLVRERAGLPDIETLNPAIRGNQELQRAAIQRERQIELATEGQRYFDVRRWMIADKNGEGRQNGYVHGMNVRGESNDKEDFNRIVEASQIVFNRKMYLYPMPDSEMRKTKNLVQNPGW
Gal(a1-3)Gal(b1-4)GlcNAc
  glycan array binding signal (z-score): 0.049
[1]
  glycan array binding signal (z-score): -0.588
[2]
  glycan array binding signal (z-score): 0.804
[3]
  glycan array binding signal (z-score): -0.759
[4]
  glycan array binding signal (z-score): -0.246
[5]
  glycan array binding signal (z-score): 2.52
[6]
  glycan array binding signal (z-score): 0.883
Gal(a1-3)GalNAc
  glycan array binding signal (z-score): -0.113
[7]
  glycan array binding signal (z-score): -1.43
[8]
  glycan array binding signal (z-score): -0.312
Gal(a1-4)Gal(b1-4)Glc
  glycan array binding signal (z-score): -0.824
Gal(a1-4)Gal(b1-4)GlcNAc
  glycan array binding signal (z-score): 0.506
[9]
  glycan array binding signal (z-score): 0.043
[10]
  glycan array binding signal (z-score): -0.785
Gal(a1-4)GlcNAc
  glycan array binding signal (z-score): -0.962
Gal(a1-6)Glc
  glycan array binding signal (z-score): -0.384
Gal(b1-2)Gal
  glycan array binding signal (z-score): -0.246
Gal(b1-3)Gal
  glycan array binding signal (z-score): -0.391
Gal(b1-3)Gal(b1-4)GlcNAc
  glycan array binding signal (z-score): -0.502
Gal(b1-3)GalNAc
  glycan array binding signal (z-score): 0.274
[11]
  glycan array binding signal (z-score): -0.24
[12]
  glycan array binding signal (z-score): -0.384
Gal(b1-3)GalNAc(b1-3)Gal
  glycan array binding signal (z-score): -0.456
[13]
  glycan array binding signal (z-score): 0.496
[14]
  glycan array binding signal (z-score): 0.161
[15]
  glycan array binding signal (z-score): 0.857
Gal(b1-3)GlcNAc
  glycan array binding signal (z-score): 0.42
[16]
  glycan array binding signal (z-score): 1.17
[17]
  glycan array binding signal (z-score): -0.988
Gal(b1-3)GlcNAc(b1-2)Man
  glycan array binding signal (z-score): -0.752

— the supplement of paper PMC8728848
